From the supplement of paper PMC8551327
Values joined by “and” are separate entries in the source; they are usually repeats but may differ in a detail not shown here. Identical values can stand only once. This is one part of the list. No stated cut-off is given here; in the data, active = 1.25 or more and inactive = the rest. Many values rest on one well or one pass, so single values are uncertain.

Each compound was assayed on Kcc2-LUC knock-in mouse primary cortical neurons (Kcc2 promoter reporter) (assay: Kcc2 promoter-driven luciferase activity relative to vehicle control (fold of vehicle (ratio)); higher = stronger Kcc2 promoter activation (Kcc2 expression enhancer)). Details: 100 nM; 48 h.

Structure (SMILES)	Kcc2 promoter-driven luciferase activity
CC[C@H]1CN2CCc3cc(OC)c(OC)cc3[C@@H]2C[C@@H]1C[C@H]1NCCc2c1[nH]c1ccc(O)cc21 [Tubulosine]	inactive: 0.0957
CO[C@@H]1[C@H](O)C[C@@H](O[C@@H]2C[C@H](Oc3cc4cc5c(c(O)c4c(O)c3C)C(=O)[C@@H](O[C@H]3C[C@@H](O[C@H]4C[C@@H](O[C@H]6C[C@](C)(O)[C@@H](OC(C)=O)[C@H](C)O6)[C@H](O)[C@@H](C)O4)[C@H](O)[C@@H](C)O3)[C@H]([C@H](OC)C(=O)[C@@H](O)[C@@H](C)O)C5)O[C@H](C)[C@@H]2OC(C)=O)O[C@@H]1C [Chromomycin a3]	inactive: 0.61
COc1cc2c(c3oc4cccc(O)c4c(=O)c13)[C@@H]1C=CO[C@@H]1O2 [Sterigmatocystin]	inactive: 1.02
COc1ccc(-c2c(C)c(C(=O)O)nc(-c3ccc4c(O)c(OC)c5c(c4n3)=NC(C)(C)N=5)c2N)c(O)c1OC [Imidazoquinoline]	inactive: 1.13
CC(=O)O[C@@H]1C[C@H]2O[C@@H]3C=C(C)CC[C@]3(C)[C@]1(C)[C@]21CO1 [Trichodermin]	inactive: 0.91 and inactive: 1.19
CN(C)C(=S)SSC(=S)N(C)C [Thiram]	inactive: 1
CO[C@@H]1C[C@@H](C[C@H]2CC[C@H](C)[C@H]([C@@H](C)C(=O)O)O2)O[C@]2(O[C@](C)([C@H]3CC[C@@](C)([C@@H]4O[C@@H]([C@H]5O[C@@](O)(CO)[C@H](C)C[C@@H]5C)C[C@@H]4C)O3)C[C@H]2C)[C@@H]1C [Nigericin]	inactive: 0.88
